No constants are given. Whether binding was seen depends on the method and setting. In cells and extracts the contact can be indirect. Sequences can lack the tags named with a protein.
Biological target: T1, GT-4-YFPc (GT-4 fused to the C-terminal part of yellow fluorescent protein) (Arabidopsis) (UniProt Q9LU92)
T1 sequence: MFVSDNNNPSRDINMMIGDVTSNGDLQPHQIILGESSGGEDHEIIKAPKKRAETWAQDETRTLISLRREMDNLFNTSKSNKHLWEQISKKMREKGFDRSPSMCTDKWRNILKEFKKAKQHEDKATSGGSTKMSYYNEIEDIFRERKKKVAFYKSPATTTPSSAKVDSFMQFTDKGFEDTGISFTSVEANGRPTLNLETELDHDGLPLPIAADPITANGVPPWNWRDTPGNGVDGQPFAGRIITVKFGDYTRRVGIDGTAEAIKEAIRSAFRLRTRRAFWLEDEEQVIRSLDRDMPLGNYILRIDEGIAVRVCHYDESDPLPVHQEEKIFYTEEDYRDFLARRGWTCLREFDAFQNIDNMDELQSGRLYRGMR
Assay: split reporter; BiFC with YFP halves, constructs co-transformed into Arabidopsis protoplasts, confocal microscopy 16 h later

- binding: no binding
Substance: YN (N-terminal of yellow fluorescent protein alone) (domain or fragment)

— article PMC4267404, “Trihelix transcription factor GT-4 mediates salt tolerance via interaction with TEM2 in Arabidopsis”
